Assay results as given in paper doi:10.1101/2021.06.20.449126.
These are yes or no findings as the source states them, for the method shown. In cells and extracts the contact can be indirect. Binding can be weak; no strength is given.

Molecular target: RPRD1A CC domain variant, 3F-tagged (human)
Assay: co-IP

B1: endogenous RPRD1B (protein, UniProt Q9NQG5 1-326)
chain: MSSFSESALEKKLSELSNSQQSVQTLSLWLIHHRKHAGPIVSVWHRELRKAKSNRKLTFLYLANDVIQNSKRKGPEFTREFESVLVDAFSHVAREADEGCKKPLERLLNIWQERSVYGGEFIQQLKLSMEDSKSPPPKATEEKKSLKRTFQQIQEEEDDDYPGSYSPQDPSAGPLLTEELIKALQDLENAASGDATVRQKIASLPQEVQDVSLLEKITDKEAAERLSKTVDEACLLLAEYNGRLAAELEDRRQLARMLVEYTQNQKDVLSEKEKKLEEYKQKLARVTQVRKELKSHIQSLPDLSLLPNVTGGLAPLPSAGDLFSTD
binding: binds
